In test [1] the target is T1, FLAG-tagged Rpt1 (S. cerevisiae) (UniProt P33299).
T1 sequence: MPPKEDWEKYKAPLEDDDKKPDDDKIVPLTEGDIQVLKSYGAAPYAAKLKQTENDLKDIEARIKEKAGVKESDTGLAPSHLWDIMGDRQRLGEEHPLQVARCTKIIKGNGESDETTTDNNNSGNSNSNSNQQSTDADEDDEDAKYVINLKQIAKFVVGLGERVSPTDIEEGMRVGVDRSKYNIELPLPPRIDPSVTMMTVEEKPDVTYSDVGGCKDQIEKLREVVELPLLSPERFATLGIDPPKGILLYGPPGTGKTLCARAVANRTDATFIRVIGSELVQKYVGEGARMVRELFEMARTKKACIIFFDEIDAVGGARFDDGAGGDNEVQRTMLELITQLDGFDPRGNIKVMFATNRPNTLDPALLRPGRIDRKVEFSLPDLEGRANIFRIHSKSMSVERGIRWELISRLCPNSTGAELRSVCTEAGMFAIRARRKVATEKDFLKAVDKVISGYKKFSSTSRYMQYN
Put plainly: pull-down; FLAG-Rpt1 as bait from the E. coli coexpression system (wildtype and rpt5-Δ5); anti-FLAG M2-agarose; 5% native-PAGE and immunoblotting.

The chains behind the UniProt entries cited, without tags or fusion partners.
UniProt Q01939: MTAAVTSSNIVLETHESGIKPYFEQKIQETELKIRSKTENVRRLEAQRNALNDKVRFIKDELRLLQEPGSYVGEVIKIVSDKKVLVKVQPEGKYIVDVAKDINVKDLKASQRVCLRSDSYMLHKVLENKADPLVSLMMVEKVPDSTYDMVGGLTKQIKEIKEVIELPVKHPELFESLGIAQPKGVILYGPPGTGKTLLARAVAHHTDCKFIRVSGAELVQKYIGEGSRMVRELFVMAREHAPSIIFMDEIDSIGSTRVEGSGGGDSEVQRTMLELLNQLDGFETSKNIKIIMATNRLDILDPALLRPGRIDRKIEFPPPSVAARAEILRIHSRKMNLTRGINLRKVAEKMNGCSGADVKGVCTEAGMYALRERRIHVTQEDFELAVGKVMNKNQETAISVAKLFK

The target of test [2] is T2, 3xFLAG-tagged Nas2 (S. cerevisiae), P40555.
T2 chain: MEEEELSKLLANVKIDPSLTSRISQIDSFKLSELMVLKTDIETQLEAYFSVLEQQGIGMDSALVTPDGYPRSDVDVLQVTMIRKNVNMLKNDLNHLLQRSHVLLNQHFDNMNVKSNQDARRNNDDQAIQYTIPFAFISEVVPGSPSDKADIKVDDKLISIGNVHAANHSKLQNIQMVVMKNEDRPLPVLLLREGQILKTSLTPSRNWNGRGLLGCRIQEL
Put plainly: pull-down; Nas2-3xFLAG as bait from hsm3Δ yeast lysate, Hepes buffers; native-PAGE and immunoblotting for Rpn8. Conditions: remark: other sources report otherwise.

In test [3] the target is T3, Rpn11 harboring a TeV-ProA affinity tag (S. cerevisiae), P43588.
T3 chain: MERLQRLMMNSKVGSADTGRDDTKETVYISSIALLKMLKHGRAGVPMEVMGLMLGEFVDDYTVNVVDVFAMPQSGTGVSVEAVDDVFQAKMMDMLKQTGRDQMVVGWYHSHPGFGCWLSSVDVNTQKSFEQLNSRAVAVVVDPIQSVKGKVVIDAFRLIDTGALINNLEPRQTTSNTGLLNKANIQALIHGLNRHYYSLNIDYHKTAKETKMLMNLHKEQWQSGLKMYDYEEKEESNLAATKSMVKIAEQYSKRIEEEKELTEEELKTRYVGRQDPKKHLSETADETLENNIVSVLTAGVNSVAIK
As to the kind of experiment: pull-down; Rpn11 with TeV-ProA tag as bait from yeast lysate on IgG resin, Hepes buffers with NP-40, eluted with tobacco etch virus protease; native-PAGE and SDS-PAGE with immunoblotting; hsm3Δ cells (also nas2Δ and hsm3Δnas2Δ). Conditions: remark: other sources report otherwise.

For test [4], the target named is T4, His6-tagged Rpt3 (S. cerevisiae), P33298.
T4 chain: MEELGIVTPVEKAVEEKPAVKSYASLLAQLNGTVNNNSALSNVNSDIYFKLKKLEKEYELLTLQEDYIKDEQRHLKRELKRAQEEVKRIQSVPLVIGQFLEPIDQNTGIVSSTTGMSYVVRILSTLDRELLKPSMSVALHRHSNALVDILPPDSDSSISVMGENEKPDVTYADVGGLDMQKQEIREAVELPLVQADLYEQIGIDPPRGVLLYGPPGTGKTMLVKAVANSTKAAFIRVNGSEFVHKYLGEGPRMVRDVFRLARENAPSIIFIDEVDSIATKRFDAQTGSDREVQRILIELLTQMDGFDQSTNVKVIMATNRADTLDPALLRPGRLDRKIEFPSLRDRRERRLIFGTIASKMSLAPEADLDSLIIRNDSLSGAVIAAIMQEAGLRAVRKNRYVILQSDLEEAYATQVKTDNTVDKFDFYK
Put plainly: pull-down; His6-Rpt3 as bait from the E. coli coexpression system (wildtype and rpt5-Δ5); TALON resin; 5% native-PAGE and immunoblotting. Conditions: remark: other sources report otherwise.

Results are given in words; binding and its absence hold for the method and conditions named. Binding seen in cells or lysates may run through a third protein. Some results given as binding are weak or reduced against the parent protein; the word gives no strength. Tags and fused reporters may be left off the sequences shown.

With Rpt6 (from UniProt Q01939 1-405), the binding result in test [1] is on record as “binds”.

B1: Rpn8, Q08723 1-338 (protein)
chain: MSLQHEKVTIAPLVLLSALDHYERTQTKENKRCVGVILGDANSSTIRVTNSFALPFEEDEKNSDVWFLDHNYIENMNEMCKKINAKEKLIGWYHSGPKLRASDLKINELFKKYTQNNPLLLIVDVKQQGVGLPTDAYVAIEQVKDDGTSTEKTFLHLPCTIEAEEAEEIGVEHLLRDVRDQAAGGLSIRLTNQLKSLKGLQSKLKDVVEYLDKVINKELPINHTILGKLQDVFNLLPNLGTPDDDEIDVENHDRINISNNLQKALTVKTNDELMVIYISNLVRSIIAFDDLIENKIQNKKIQEQRVKDKQSKVSDDSESESGDKEATAPLIQRKNKKN
Take B1: the binding result in test [2] is given as “binds”.

B2: Rpn12, P32496 1-274 (protein)
chain: MPSLAELTKSLSIAFENGDYAACEKLLPPIKIELIKNNLLIPDLSIQNDIYLNDLMITKRILEVGALASIQTFNFDSFENYFNQLKPYYFSNNHKLSESDKKSKLISLYLLNLLSQNNTTKFHSELQYLDKHIKNLEDDSLLSYPIKLDRWLMEGSYQKAWDLLQSGSQNISEFDSFTDILKSAIRDEIAKNTELSYDFLPLSNIKALLFFNNEKETEKFALERNWPIVNSKVYFNNQSKEKADYEDEMMHEEDQKTNIIEKAMDYAISIENIV
B2: the binding result in test [3] is “binds”.

B3: Nas2, P40555 1-220 (protein)
chain: MEEEELSKLLANVKIDPSLTSRISQIDSFKLSELMVLKTDIETQLEAYFSVLEQQGIGMDSALVTPDGYPRSDVDVLQVTMIRKNVNMLKNDLNHLLQRSHVLLNQHFDNMNVKSNQDARRNNDDQAIQYTIPFAFISEVVPGSPSDKADIKVDDKLISIGNVHAANHSKLQNIQMVVMKNEDRPLPVLLLREGQILKTSLTPSRNWNGRGLLGCRIQEL
As to B3, the binding result in test [3] and in test [4] was “binds” each time.
